Data taken from patent publication US20170176440A1, “METHODS AND COMPOSITIONS FOR EVALUATING BREAST CANCER PATIENTS” (THE BOARD OF REGENTS OF THE UNIVERSITY OF TEXAS SYSTEM, priority 2014, published 2017).
No constants are given. Whether binding was seen depends on the method and setting. For some of these results: Binding seen in cells or lysates may run through a third protein. Some binding calls cover weakened binding; strength is not graded here. For some of these results: Tags and fused reporters may be left off the sequences shown. Each block holds one molecule with its values, some of them ahead of it.

Sequences of proteins named here, by UniProt entry; tags and fusion partners are left off. A change or cut given only in a name is not applied to a line headed by its entry.
UniProt Q92731: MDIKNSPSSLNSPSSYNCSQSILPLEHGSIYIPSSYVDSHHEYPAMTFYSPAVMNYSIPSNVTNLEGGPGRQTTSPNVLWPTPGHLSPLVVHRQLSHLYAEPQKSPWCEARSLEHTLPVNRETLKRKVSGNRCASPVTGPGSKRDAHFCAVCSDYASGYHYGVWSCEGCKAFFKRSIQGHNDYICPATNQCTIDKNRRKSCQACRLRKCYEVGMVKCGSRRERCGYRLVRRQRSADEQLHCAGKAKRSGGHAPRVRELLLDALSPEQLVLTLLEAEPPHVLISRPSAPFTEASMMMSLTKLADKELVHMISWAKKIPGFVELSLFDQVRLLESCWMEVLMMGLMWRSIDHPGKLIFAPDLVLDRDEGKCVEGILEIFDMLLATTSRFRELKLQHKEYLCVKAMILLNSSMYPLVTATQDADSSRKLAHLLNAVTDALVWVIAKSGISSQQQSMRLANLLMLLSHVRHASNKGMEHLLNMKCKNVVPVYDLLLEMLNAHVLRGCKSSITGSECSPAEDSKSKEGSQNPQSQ
UniProt P00519: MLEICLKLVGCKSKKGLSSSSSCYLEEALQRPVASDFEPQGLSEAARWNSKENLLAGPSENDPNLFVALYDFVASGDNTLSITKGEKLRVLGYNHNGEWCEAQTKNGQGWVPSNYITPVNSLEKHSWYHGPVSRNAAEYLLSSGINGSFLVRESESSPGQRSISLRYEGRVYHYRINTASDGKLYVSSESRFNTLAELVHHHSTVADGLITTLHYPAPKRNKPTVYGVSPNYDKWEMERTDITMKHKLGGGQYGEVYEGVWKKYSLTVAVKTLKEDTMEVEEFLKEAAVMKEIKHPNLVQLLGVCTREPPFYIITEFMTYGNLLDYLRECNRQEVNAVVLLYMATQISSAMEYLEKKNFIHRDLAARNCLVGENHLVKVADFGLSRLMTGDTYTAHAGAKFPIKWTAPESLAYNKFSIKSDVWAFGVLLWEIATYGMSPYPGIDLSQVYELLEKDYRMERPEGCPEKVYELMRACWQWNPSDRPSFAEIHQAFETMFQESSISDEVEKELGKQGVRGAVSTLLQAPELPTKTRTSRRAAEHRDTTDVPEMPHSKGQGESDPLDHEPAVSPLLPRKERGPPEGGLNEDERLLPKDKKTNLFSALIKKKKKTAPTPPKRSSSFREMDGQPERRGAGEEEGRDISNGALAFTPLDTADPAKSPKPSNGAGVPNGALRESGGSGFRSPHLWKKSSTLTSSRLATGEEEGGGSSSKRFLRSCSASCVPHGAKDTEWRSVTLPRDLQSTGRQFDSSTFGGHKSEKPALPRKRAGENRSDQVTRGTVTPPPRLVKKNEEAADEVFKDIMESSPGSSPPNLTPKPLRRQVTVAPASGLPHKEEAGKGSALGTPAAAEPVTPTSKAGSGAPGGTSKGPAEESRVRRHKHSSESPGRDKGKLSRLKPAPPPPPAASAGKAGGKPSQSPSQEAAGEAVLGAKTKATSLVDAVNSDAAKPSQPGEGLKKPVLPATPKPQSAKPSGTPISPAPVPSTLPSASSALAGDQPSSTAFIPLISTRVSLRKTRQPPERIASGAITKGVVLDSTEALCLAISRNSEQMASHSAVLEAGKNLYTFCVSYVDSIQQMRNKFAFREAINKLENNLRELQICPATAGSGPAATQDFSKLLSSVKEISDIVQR

Experiments:
[1] = molecular target: Flag-ERβ (WT) (human) (UniProt Q92731); assay: co-IP of ectopic c-Abl with Flag-ERβ in HEK293T cells
[2] = molecular target: Flag-ERβ (WT) (human) (UniProt Q92731); assay: IP of Flag-ERβ from HEK293T cells, anti-c-Abl immunoblot
[3] = molecular target: estrogen receptor beta (ERβ) (human) (UniProt Q92731); assay: IP of c-Abl with ERβ immunoblot, and reciprocal co-IP, in MDA-MB-231 cells
[4] = molecular target: estrogen receptor beta (ERβ) (human) (UniProt Q92731); assay: reciprocal co-IP of endogenous proteins in MDA-MB-231 cells
[5] = molecular target: ERβ AF1 (amino acid 1-148) (human) (UniProt Q92731); assay: yeast two-hybrid screen, ERβ AF1 (1-148) as bait, human mammary cDNA prey library
[6] = molecular target: estrogen receptor beta (ERβ) (human) (UniProt Q92731); assay: co-IP of endogenous proteins in MCF7 cells; detectable without ligand, enhanced by E2
[7] = molecular target: estrogen receptor beta (ERβ) (human) (UniProt Q92731); assay: GST-EYA2 pull-down of in vitro translated ERβ; detectable without ligand, enhanced by DPN

B1: EYA2 (enzyme, human, UniProt O00167 1-538, looked up)
chain: MVELVISPSLTVNSDCLDKLKFNRADAAVWTLSDRQGITKSAPLRVSQLFSRSCPRVLPRQPSTAMAAYGQTQYSAGIQQATPYTAYPPPAQAYGIPSYSIKTEDSLNHSPGQSGFLSYGSSFSTSPTGQSPYTYQMHGTTGFYQGGNGLGNAAGFGSVHQDYPSYPGFPQSQYPQYYGSSYNPPYVPASSICPSPLSTSTYVLQEASHNVPNQSSESLAGEYNTHNGPSTPAKEGDTDRPHRASDGKLRGRSKRSSDPSPAGDNEIERVFVWDLDETIIIFHSLLTGTFASRYGKDTTTSVRIGLMMEEMIFNLADTHLFFNDLEDCDQIHVDDVSSDDNGQDLSTYNFSADGFHSSAPGANLCLGSGVHGGVDWMRKLAFRYRRVKEMYNTYKNNVGGLIGTPKRETWLQLRAELEALTDLWLTHSLKALNLINSRPNCVNVLVTTTQLIPALAKVLLYGLGSVFPIENIYSATKTGKESCFERIMQRFGRKAVYVVIGDGVEEEQGAKKHNMPFWRISCHADLEALRHALELEYL
binding [5]: binds
binding [6]: binds

B2: GST-EYA2 (enzyme, human, UniProt O00167 1-538, looked up, not shown: a dimerising Fc or GST)
chain: B1 chain
binding [7]: binds

Continued, values first:

binding [1]: binds
binding [2]: binds
Molecule: WT c-Abl (ectopic, co-expressed with Flag-ERβ in HEK293T cells) (from UniProt P00519 1-1130) (enzyme)

binding [3]: binds
binding [4]: binds
Molecule: c-Abl (from UniProt P00519 1-1130) (enzyme)
